In patent US20110184148 (published 2011) one finds isolated mass and isolated yield data, which are given here for eight substances.

Data set [1] in a line: general procedure: Fmoc solid-phase peptide synthesis; Fmoc-CLEAR amide resin; FastMoc method; DCC/HOBt for N-alkyl-Cys; HATU/DIEA for first residue. The note with it: whole synthesis.
The nature of data set [2]: general procedure: Fmoc solid-phase peptide synthesis; CLEAR Amide resin; FastMoc method; DCC/HOBt for N-alkyl-Cys; HATU/DIEA for first residue. Conditions: whole synthesis, scale 0.25 mmol.

In data set [1] (scale 0.03 mmol), “Trp-Leu-Lys-Gly-Gly-Val-Val-Leu-Lys-Glu-SCH2CH2COOH” gave an isolated mass of 0.21 mg and an isolated yield of 5.3%.
In data set [1], “Glu-Val-Thr-Gly-His-Arg-Trp-Leu-Lys-Gly-SC6H5” gave an isolated mass of 1.0 mg. This substance also gave an isolated yield in data set [1] (scale of the general procedure 0.03-0.25 mmol) of 35%.
In data set [1] (scale 0.03 mmol), “Ala-Thr-Glu-Val-Thr-Gly-His-Arg-Trp-Leu-SCH2CH2COOH” returned an isolated mass of 0.15 mg and an isolated yield of 7.0%.
As to “Glu-Val-Thr-Gly-His-Arg-Trp-Leu-Lys-Gly-SCH2CH2COOH”, the isolated mass in data set [1] (scale 0.03 mmol) stood at 0.98 mg; in data set [1] (scale 0.05 mmol, run 1) it was 0.60 mg; in data set [1] (scale 0.05 mmol, run 2) it was 0.024 mg; in data set [1] (scale 0.1 mmol, run 1), 1.0 mg; in data set [1] (scale 0.1 mmol, run 2), 0.85 mg. Also, the isolated yield in data set [1] (scale 0.03 mmol) came out at 33%; in data set [1] (scale 0.05 mmol, run 1) it was 17%; in data set [1] (scale 0.05 mmol, run 2), 1.9%; in data set [1] (scale 0.1 mmol, run 1), 34%; in data set [1] (scale 0.1 mmol, run 2), 28%.
“Gly-Ser-Lys-11e-Leu-Leu-Thr-Cys(Acm)-Ser-Leu-Thr[(Gal-GlcNAc)-2-GalNAc]-Asp-S er-Ala-Thr-Glu-Val-Thr-Gly-His-Arg-Trp-Leu-Lys-Gly-SCH2CH2COOH” registered an isolated yield in data set [1] (scale 25 μmol) of 5.5%.
“Gly-Ser-Lys-Ile-Leu-Leu-Thr-Cys(Acm)-Ser-Leu-Asn(GlcNAc2)-Asp-Ser-Ala-Thr-Gl u-Val-Thr-Gly-His-Arg-Trp-Leu-Lys-Gly-SCH2CH2COOH” came in with an isolated yield in data set [1] (scale 0.1 mmol) of 8.2%.
In the case of “Thr-Glu-Val-Thr-Gly-His-Arg-Trp-Leu-Lys-SCH2CH2COOH”, in data set [1] (scale 0.03 mmol), the isolated mass is recorded as 0.17 mg and the isolated yield was 4.4%.
In data set [2], “Ac-Val-Thr(GalGalNAc)-Ser-Ala-Pro-Asp-Thr-Arg-Pro-Ala-Pro-Gly-Ser-Thr(GalGal NAc)-Ala-Pro-Pro-Ala-His-Gly-SCH2CH2COOH” came in with an isolated mass of 18.9 mg. In addition, the isolated yield in data set [1] (scale 0.25 mmol) was 14%.
